Experimental data from patent US20190030018A1 (Celgene Corporation, priority 2017, published 2019).
At least one compound was matched to its structure with a doubt left.

Tests used:
HL-60 = assay: In vitro combination studies, CellTitre-Glo cell viability; conditions: in combination with Compound 1
OCT-AML-3 = assay: as above; conditions: OCI-AML-3; in combination with Compound 1
OCI-AML-2 = assay: as above; conditions: in combination with Compound 1
AML cell lines = assay: In vitro combination studies, CellTitre-Glo cell viability (Bliss, Loewe, HSA, CES synergy analysis); conditions: FLT3 and JAK inhibitors in combination with Compound 1 in MOLM-13 and NOMO-1 cell lines
ML-2 = assay: In vitro combination studies, CellTitre-Glo cell viability; conditions: in combination with Compound 1
NOMO-1 = assay: as above; conditions: in combination with Compound 1
HNT-34 = assay: as above; conditions: in combination with Compound 1
MOLM-13 = assay: as above; conditions: in combination with Compound 1
MV-4-11 = assay: as above; conditions: in combination with Compound 1
F-36-P = assay: as above; conditions: in combination with Compound 1
KG-1 = assay: as above; conditions: in combination with Compound 1
[1] = system: IL3 independent JAK2 V617F BaF3 cells; assay: Combination studies with JAK2 inhibitors in engineered BaF3 cells, CellTitre-Glo after 3 days; type: cell-based; conditions: compared to the IL3 dependent lines
Experimental: Everolimus was included as a control. The cell viability was then measured by CellTitre-Glo® after 3 days.

SMILES | Synergy analysis for combinations with Compound 1 (HL-60) | Synergy analysis for combinations with Compound 1 (OCT-AML-3) | Synergy analysis for combinations with Compound 1 (OCI-AML-2) | Synergy (AML cell lines) | Synergy analysis for combinations with Compound 1 (ML-2) | Synergy analysis for combinations with Compound 1 (NOMO-1) | Synergy analysis for combinations with Compound 1 (HNT-34) | Synergy analysis for combinations with Compound 1 (MOLM-13) | Synergy analysis for combinations with Compound 1 (MV-4-11) | Synergy analysis for combinations with Compound 1 (F-36-P) | Synergy analysis for combinations with Compound 1 (KG-1) | single agent sensitivity [1]
CO[C@@H]1[C@H](N(C)C(=O)c2ccccc2)C[C@H]2O[C@]1(C)n1c3ccccc3c3c4c(c5c6ccccc6n2c5c31)C(=O)NC4 [midostaurin, reference compound] | No | Yes | Yes | Yes | No | No | No | Yes | Yes | Yes | No | 
CC1(C)CCC(CN2CCN(c3ccc(C(=O)NS(=O)(=O)c4ccc(NCC5CCOCC5)c([N+](=O)[O-])c4)c(Oc4cnc5[nH]ccc5c4)c3)CC2)=C(c2ccc(Cl)cc2)C1 [venetoclax, reference compound] | No | No | No |  | No | No | No | No | No | No | Yes | 
C[C@]12O[C@H](C[C@]1(O)CO)n1c3ccccc3c3c4c(c5c6ccccc6n2c5c31)CNC4=O [Lestaurtinib] | No | No | No | Yes | No | No | No | Yes | Yes | No | No | 
N#CC[C@H](C1CCCC1)n1cc(-c2ncnc3[nH]ccc23)cn1 [ruxolitinib] |  |  |  |  |  |  |  |  |  |  |  | more sensitive
C=CCNC1=C2C[C@@H](C)C[C@H](OC)[C@H](O)[C@@H](C)/C=C(\C)[C@H](OC(N)=O)[C@@H](OC)/C=C\C=C(/C)C(=O)NC(=CC1=O)C2=O [Tanespimycin] | No | No | No |  | No | No | No | No | No | No | No | 
C=CCNc1c(O)cc2c(O)c1C[C@@H](C)C[C@H](OC)[C@H](O)[C@@H](C)/C=C(\C)[C@H](OC(N)=O)[C@@H](OC)/C=C\C=C(/C)C(=O)N2 [Retaspimycin] | No | No | Yes |  | No | No | No | Yes | Yes | No | No | 
CCS(=O)(=O)N1CC(CC#N)(n2cc(-c3ncnc4[nH]ccc34)cn2)C1 [Baricitinib] |  |  |  | Yes |  |  |  |  |  |  |  | 
COc1cc2c(N3CCN(C(=O)Nc4ccc(OC(C)C)cc4)CC3)ncnc2cc1OCCCN1CCCCC1 [Tandutinib] |  |  |  | Yes |  |  |  |  |  |  |  | 
Cc1cnc(Nc2ccc(OCCN3CCCC3)cc2)nc1Nc1cccc(S(=O)(=O)NC(C)(C)C)c1 [fedratinib, reference compound] | No | Yes | Yes | Yes | No | Yes | No | Yes | No | Yes | No | 
